## Primary screen of a compound library

Values are the deposited “Percent Effect”, in %.
How 0% and 100% were set is not recorded. Most values in the screen are low, and negative values occur.
Compounds were drawn at random from those tested, without regard to their results.

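Whole-parasite assay of Trypanosoma brucei over 72 hours; the read-out is not stated. Tested at 30 µM. Higher reads as stronger inhibition (inferred: compounds with an IC50 in retests scored well above the rest). Values scatter widely below zero; nearly all retest evidence comes from the higher of the two concentrations used. Size under these conditions: about 64,000 compounds, about 940 of them at 50% or above in at least one test.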

SMILES,percent effect
CS(=O)(=O)NCC(=O)NCc1cccnc1-n1cnc2ccccc21,-39.48
O=C(c1cnccn1)N1CCC(Cc2cnc3[nH]ccc3c2)CC1,15.66
O=C(Nc1cccnc1)N(Cc1ccccc1)C1CC1,60.16
O=C(O)C(F)(F)F.O=C1CCC2(CCCN(CCc3ccccc3)C2)N1Cc1cccnc1 (stereo unspecified),-16.68
CCOCc1ccccc1NC(=O)NCC(C)(O)c1ccsc1 (stereo unspecified),56.33
COCCN(Cc1c(C)nn(C)c1C)C(=O)C1COc2ccccc2C1 (stereo unspecified),-10.98
CN(C)CCNC(=O)c1noc2c1CN(C(=O)N(C)C)CC2,-30.32
Cn1ccc2c(C(=O)NCCCN3CCCC3)cccc21,-4.832
CC(C)OCCOCC(O)CN(C)C(=O)Nc1ccc(F)cc1Cl (stereo unspecified),-26.92
CS(=O)(=O)N1Cc2ccccc2C2(CCN(C(=O)c3ccno3)CC2)C1,-25.32
Cc1ccc(CCCC(=O)N(C)CCN2CCOCC2)cc1,14.28
N#Cc1cnc2ccccc2c1N1CCN(C(=O)C2CCC2)CC1,-31.68
Cc1nc2ccccc2c(=O)n1CCC(=O)N1CCCC1,4.207
[H][C@@]12CCN(C[C@@H]1CC)[C@@H](CNC(=O)NC1CCCCC1)C2,-6.588
O=C(O)C(F)(F)F.O=C(O)C(F)(F)F.c1cncc(CO[C@H]2CO[C@@]3(CCN(Cc4ccoc4)C3)C2)c1,-8.557
Cc1cccc(-n2nc(CC(C)C)nc2CCn2ccc(=O)[nH]c2=O)c1,-2.839
O=C(O)c1cccc(CC2CCN(c3cnccn3)CC2)c1,25.95
O=C1COc2ccc(C(=O)NS(=O)(=O)c3cc(F)ccc3F)cc2N1,13.27
CCc1c(C)sc2c1c(N)nc(=O)n2CCN1CCCCC1,14.21
CC(c1nc(C2CC2)no1)N1CCN(CCc2ccncc2)CC1 (stereo unspecified),-23.35
O=C(O)C(F)(F)F.O=C(O)C(F)(F)F.[H][C@]12C[C@@H](Cn3cncn3)N(C)[C@@]1([H])CCN(C1CCOCC1)C2,-26.85
[H][C@@]12CN(CC(C)C)C[C@]1([H])C(=O)NC21CCN(C(=O)c2cccnc2)CC1,-4.323
O=C1NCCN1C1CCN(c2ccnc(-c3ccccc3)n2)CC1,-15.24
COCC(=O)N1CCC(Oc2cccc(C)c2)CC1,4.485
O=C(Nc1ccccn1)c1csc(NC2CCCC2)n1,1.318
Cn1ccc(C(=O)NC2CCC23CCN(C(=O)c2ccnnc2)CC3)c1 (stereo unspecified),-12.37
[H][C@@]12CS(=O)(=O)C[C@]1([H])N(C(=O)Nc1ccccc1Cl)CCN2CCC,-52.78
Cc1cnc(N)c(C(=O)C2CCN(C(=O)C3CCC3)CC2)c1,-32.12
Cc1cc(CN(C)c2nc(-c3ccco3)nc3c2CCN(C)CC3)on1,-25.67
Cc1csc(CCCNC(=O)[C@H]2CNC[C@@H](C(=O)N3CCCC3)C2)n1,-5.26
CN(C)CCN1CC2(CCN(C(=O)c3cnccn3)CC2)OC1=O,-18.97
Cc1nc[nH]c1CN(C)CC1CCCN(CCc2ccc(Cl)cc2)C1 (stereo unspecified),61.25
COCCN1CC[C@]2(CN(C(=O)c3cccs3)C[C@H]2C)C1=O,1.814
CN(C)Cc1ccc(N2CCN(CCOCC(F)(F)F)CC2)nc1,-1.399
Cc1cccnc1CNC(=O)CC1C(=O)NCCN1CC(C)(C)C (stereo unspecified),-14.13
Cc1ccc(-c2noc(C3CCN3C(=O)c3cc[nH]n3)n2)s1 (stereo unspecified),13.56
Cc1c(CN2CCOCC2)c(O)n(CCc2ccccc2)c(=O)c1C#N,4.765
Cc1ccc(C(=O)N2CCC3(CCN(c4ccsc4)C3=O)C2)cn1.O=C(O)C(F)(F)F (stereo unspecified),-109.7
CCN1CCC(NC(=O)CN2CCCC2Cn2cncn2)CC1 (stereo unspecified),2.116
Cc1cccc(CNCC2(O)CCCN(CC3CCCCC3)C2=O)n1 (stereo unspecified),-8.997
COCCNCc1cc2ccc(C)c(C)c2[nH]c1=O,2.397
c1cn(CCn2cnnc2)c(-c2cc3n(n2)CCCNC3)n1,-107.2
CC(C)(C)c1nc(CN(Cc2ccccc2Cl)C2CCCC2)no1,-23.82
COCC(=O)N1CCCCC1c1nc(N(C)C)ncc1-c1cc(C)no1 (stereo unspecified),-6.324
COc1ccccc1CC1CCCN(CCC#N)C1 (stereo unspecified),-5.815
O=C(NCC(O)C1CC1)Nc1cnn(Cc2ccccc2)c1 (stereo unspecified),2.389
CCN1CCCC(C)(C(=O)NCCc2nnc(C)[nH]2)C1 (stereo unspecified),-0.3424
CCc1noc(C(C)SCCS(C)(=O)=O)n1 (stereo unspecified),6.21
O=C(CCc1cccs1)Nc1ccnn1C1CCS(=O)(=O)C1 (stereo unspecified),2.649
O=C(O)C(F)(F)F.[H][C@@]12COC[C@H](NS(C)(=O)=O)[C@]1([H])CN(Cc1ccc(C)s1)C2,-10.8
CN1CCCC1c1ccc(N2CCOCC2)cn1 (stereo unspecified),2.65
CN(C)C(=O)c1cn[nH]c1C1CCCN1Cc1c[nH]cn1 (stereo unspecified),2.362
COCCNC(=O)Cn1c(-c2cccc(Cl)c2)nc(C)c(CCO)c1=O,-21.48
O=C(c1cc(Br)ccc1-n1cnnn1)N1CCCCC1,-6.556
CC1=Nc2c(c(=O)[nH]n2C2CCCC2)C(c2cccc(O)c2)S1 (stereo unspecified),19.38
CCNCCc1nc2cc(F)ccc2[nH]1.Cl,-12.47
O=C(Cc1ccsc1)N1CCC(n2nc(-c3ccco3)ccc2=O)CC1,10.01
CC(=O)NCc1ccc(-c2ccccc2C(=O)O)cn1,8.49
[H][C@]12C[C@H](CNC(=O)c3cccn3C)O[C@@]1([H])CN(C(=O)c1ccco1)C2,-52.83
N#Cc1ccc(CNc2cnn(CCN3CCOCC3)c2)cc1,-40.88
O=C(Cc1ccccc1)NCCNCc1cccc(O)c1,-32.29
O=C(N1CCC(Oc2ccncc2)C1)C1(c2ccc(F)cc2)CC1 (stereo unspecified),-17.54
Cc1c(CS(C)(=O)=O)cccc1NCC1CCCCC1,-31.23
CCN(CCCNC(=O)c1ccc(C)[nH]c1=O)S(C)(=O)=O,-35.91
O=C(O)C(F)(F)F.O=C1COC2(CCN(Cc3ccsc3)CC2)CN1,-11.85

Once more, the final 8:

| SMILES | percent effect |
|---|---|
| `CC(=O)NCc1ccc(-c2ccccc2C(=O)O)cn1` | 8.49 |
| `[H][C@]12C[C@H](CNC(=O)c3cccn3C)O[C@@]1([H])CN(C(=O)c1ccco1)C2` | -52.83 |
| `N#Cc1ccc(CNc2cnn(CCN3CCOCC3)c2)cc1` | -40.88 |
| `O=C(Cc1ccccc1)NCCNCc1cccc(O)c1` | -32.29 |
| `O=C(N1CCC(Oc2ccncc2)C1)C1(c2ccc(F)cc2)CC1` (stereo unspecified) | -17.54 |
| `Cc1c(CS(C)(=O)=O)cccc1NCC1CCCCC1` | -31.23 |
| `CCN(CCCNC(=O)c1ccc(C)[nH]c1=O)S(C)(=O)=O` | -35.91 |
| `O=C(O)C(F)(F)F.O=C1COC2(CCN(Cc3ccsc3)CC2)CN1` | -11.85 |

Source: ChEMBL document CHEMBL3988442, “University of Dundee, Small-Polar-MMV Screening Library” (2021).